Experimental data: the supplement of paper PMC10849652
The other results are listed elsewhere or left out. Residues, ends and D or L forms follow the SMILES beside them. *: point of attachment. Cbz = O=C(OCc1ccccc1)*

The chains behind the UniProt entries cited, without tags or fusion partners. Where a name states a change or a piece, a line headed by the entry shows the natural chain unless it says otherwise.
UniProt Q8WXF1: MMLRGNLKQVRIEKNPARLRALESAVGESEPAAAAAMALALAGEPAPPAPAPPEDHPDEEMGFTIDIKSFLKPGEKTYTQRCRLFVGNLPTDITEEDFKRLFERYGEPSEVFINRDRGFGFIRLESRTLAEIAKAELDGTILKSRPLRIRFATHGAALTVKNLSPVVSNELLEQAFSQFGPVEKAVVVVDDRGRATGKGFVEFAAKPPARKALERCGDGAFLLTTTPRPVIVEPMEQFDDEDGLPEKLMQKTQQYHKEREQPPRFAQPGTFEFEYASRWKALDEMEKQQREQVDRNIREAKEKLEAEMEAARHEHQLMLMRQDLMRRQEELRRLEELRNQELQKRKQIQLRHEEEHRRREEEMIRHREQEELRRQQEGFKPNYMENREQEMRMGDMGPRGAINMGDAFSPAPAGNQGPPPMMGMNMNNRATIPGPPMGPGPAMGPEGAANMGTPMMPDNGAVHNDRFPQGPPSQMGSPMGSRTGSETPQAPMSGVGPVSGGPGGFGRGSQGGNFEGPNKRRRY
UniProt Q9NRG1: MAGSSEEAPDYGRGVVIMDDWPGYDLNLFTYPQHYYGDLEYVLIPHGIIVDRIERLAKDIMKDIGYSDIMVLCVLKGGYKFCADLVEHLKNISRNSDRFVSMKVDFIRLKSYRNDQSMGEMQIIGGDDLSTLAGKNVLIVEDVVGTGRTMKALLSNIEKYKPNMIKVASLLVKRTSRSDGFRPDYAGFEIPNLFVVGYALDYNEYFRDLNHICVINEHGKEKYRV
UniProt O00232: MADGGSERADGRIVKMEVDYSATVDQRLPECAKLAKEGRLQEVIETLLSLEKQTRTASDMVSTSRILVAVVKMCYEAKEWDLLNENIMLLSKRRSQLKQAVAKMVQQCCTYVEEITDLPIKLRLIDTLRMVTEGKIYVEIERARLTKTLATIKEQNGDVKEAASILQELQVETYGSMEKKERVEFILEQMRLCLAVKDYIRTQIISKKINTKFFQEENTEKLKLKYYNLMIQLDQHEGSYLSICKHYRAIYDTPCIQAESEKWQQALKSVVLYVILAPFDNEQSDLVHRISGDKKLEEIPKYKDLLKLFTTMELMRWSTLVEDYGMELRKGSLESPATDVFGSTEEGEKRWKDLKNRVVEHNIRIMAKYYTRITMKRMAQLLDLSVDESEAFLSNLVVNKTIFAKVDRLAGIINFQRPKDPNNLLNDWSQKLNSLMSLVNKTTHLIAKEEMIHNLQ
UniProt P62333, whole entry, looked up: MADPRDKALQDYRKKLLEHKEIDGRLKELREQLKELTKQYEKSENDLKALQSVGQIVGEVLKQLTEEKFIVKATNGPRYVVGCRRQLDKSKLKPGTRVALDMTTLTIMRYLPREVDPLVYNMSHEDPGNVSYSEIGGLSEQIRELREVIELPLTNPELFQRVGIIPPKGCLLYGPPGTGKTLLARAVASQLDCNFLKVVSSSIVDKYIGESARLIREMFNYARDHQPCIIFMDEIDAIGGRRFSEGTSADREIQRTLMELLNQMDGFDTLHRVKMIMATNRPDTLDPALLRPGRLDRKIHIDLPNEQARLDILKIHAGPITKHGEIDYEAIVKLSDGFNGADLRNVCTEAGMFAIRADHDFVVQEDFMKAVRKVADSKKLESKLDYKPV
UniProt Q15185: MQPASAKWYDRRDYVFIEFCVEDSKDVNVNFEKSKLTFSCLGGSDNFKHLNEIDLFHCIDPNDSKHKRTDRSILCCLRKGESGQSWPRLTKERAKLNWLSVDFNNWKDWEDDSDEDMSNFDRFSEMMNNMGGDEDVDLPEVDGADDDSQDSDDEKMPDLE
UniProt Q9UHX1: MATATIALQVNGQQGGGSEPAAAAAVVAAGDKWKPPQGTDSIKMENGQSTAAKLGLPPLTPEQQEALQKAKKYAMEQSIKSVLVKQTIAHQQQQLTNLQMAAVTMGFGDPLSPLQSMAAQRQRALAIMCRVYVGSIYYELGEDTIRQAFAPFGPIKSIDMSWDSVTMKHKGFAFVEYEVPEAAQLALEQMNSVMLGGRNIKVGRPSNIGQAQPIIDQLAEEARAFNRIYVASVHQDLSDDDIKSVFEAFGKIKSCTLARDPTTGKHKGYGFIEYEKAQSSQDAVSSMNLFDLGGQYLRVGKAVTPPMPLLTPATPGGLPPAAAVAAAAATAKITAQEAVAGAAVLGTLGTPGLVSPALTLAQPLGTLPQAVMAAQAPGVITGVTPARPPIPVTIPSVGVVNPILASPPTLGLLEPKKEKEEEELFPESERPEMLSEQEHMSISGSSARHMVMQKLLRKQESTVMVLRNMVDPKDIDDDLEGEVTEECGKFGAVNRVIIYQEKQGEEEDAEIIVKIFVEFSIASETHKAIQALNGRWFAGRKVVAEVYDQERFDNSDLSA
UniProt Q6GMV3: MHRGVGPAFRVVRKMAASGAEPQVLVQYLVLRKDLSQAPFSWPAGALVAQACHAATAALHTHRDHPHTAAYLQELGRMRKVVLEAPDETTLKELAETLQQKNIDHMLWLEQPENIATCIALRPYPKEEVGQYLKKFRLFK
UniProt Q14671: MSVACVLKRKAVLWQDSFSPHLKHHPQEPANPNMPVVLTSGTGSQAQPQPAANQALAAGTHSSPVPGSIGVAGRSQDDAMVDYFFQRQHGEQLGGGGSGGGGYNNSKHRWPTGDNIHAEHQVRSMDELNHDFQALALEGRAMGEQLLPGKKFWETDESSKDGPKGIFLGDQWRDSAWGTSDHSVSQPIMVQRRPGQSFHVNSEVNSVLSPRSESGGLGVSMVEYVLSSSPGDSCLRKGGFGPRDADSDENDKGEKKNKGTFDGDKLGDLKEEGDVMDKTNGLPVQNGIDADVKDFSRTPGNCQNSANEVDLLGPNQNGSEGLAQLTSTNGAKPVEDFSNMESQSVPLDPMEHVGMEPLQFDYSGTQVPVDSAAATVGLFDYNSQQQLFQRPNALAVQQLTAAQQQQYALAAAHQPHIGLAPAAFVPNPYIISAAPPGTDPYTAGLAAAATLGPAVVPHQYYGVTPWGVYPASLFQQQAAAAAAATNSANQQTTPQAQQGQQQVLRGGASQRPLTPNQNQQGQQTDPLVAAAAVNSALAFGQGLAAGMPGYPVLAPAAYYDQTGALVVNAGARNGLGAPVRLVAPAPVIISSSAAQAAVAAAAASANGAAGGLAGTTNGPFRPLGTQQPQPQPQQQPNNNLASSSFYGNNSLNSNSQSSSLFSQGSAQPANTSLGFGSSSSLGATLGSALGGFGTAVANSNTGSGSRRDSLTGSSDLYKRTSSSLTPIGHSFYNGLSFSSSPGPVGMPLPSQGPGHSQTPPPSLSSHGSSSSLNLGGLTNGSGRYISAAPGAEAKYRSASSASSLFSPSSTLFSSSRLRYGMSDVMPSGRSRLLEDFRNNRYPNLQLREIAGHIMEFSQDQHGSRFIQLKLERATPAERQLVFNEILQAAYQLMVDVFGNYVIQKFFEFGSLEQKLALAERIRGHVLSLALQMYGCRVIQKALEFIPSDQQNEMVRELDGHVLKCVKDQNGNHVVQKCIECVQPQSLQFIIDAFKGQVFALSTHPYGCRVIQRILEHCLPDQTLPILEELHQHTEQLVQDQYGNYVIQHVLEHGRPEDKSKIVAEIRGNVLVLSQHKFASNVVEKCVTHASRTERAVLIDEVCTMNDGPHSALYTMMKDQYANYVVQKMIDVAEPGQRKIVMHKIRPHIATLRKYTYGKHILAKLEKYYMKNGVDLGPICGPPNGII
UniProt O95997: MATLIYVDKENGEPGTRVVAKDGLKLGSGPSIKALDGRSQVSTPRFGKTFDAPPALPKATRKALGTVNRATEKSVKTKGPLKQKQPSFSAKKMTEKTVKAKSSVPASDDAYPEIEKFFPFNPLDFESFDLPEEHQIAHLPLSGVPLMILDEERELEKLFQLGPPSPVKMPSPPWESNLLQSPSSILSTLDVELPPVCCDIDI
UniProt P17706: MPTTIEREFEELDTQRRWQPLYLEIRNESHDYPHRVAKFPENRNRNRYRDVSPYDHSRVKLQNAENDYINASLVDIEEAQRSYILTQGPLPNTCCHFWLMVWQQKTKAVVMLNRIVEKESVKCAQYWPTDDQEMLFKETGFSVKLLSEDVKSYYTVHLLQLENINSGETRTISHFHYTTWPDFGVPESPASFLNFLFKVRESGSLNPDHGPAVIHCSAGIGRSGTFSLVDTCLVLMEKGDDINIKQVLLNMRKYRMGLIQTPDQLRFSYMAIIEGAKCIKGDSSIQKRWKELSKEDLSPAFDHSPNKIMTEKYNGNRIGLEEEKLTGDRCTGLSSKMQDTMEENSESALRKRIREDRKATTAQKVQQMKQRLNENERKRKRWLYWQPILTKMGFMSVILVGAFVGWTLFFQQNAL
UniProt Q16401: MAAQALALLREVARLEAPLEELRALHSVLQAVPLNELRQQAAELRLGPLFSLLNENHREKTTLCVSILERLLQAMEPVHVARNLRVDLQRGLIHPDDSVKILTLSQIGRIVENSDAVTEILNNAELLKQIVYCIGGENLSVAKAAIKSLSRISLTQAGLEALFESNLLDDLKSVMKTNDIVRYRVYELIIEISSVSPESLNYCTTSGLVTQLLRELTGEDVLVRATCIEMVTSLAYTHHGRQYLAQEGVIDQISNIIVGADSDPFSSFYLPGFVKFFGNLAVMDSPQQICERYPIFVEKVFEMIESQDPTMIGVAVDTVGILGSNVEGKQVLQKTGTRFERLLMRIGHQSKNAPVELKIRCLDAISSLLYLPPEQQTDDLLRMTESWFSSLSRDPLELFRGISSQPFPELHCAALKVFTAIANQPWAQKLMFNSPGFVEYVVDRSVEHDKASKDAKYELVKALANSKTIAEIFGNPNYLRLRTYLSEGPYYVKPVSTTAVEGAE
UniProt Q96PU8: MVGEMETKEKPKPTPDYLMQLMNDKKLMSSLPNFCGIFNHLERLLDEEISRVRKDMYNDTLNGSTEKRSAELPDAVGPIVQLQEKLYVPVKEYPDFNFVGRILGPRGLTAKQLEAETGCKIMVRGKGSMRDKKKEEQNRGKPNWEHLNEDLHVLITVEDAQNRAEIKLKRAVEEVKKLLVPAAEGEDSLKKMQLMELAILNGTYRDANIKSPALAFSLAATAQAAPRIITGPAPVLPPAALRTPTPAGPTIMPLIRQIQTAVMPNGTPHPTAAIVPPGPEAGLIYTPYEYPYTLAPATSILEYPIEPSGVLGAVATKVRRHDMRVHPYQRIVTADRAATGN
UniProt O43242, whole entry, looked up: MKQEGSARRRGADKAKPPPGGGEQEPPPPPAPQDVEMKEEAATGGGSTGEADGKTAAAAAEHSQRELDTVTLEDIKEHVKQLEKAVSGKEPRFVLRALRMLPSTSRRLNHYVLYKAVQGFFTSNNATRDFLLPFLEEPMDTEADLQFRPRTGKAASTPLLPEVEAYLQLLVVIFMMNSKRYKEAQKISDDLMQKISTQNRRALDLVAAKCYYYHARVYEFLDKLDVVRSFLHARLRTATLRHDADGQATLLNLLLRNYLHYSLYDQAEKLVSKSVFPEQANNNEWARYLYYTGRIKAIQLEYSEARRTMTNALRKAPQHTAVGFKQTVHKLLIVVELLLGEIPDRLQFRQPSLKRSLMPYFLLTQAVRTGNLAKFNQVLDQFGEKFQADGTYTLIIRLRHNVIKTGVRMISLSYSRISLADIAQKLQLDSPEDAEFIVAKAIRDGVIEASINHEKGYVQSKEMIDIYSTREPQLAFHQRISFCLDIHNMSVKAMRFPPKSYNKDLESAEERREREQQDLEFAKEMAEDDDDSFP
UniProt Q15269: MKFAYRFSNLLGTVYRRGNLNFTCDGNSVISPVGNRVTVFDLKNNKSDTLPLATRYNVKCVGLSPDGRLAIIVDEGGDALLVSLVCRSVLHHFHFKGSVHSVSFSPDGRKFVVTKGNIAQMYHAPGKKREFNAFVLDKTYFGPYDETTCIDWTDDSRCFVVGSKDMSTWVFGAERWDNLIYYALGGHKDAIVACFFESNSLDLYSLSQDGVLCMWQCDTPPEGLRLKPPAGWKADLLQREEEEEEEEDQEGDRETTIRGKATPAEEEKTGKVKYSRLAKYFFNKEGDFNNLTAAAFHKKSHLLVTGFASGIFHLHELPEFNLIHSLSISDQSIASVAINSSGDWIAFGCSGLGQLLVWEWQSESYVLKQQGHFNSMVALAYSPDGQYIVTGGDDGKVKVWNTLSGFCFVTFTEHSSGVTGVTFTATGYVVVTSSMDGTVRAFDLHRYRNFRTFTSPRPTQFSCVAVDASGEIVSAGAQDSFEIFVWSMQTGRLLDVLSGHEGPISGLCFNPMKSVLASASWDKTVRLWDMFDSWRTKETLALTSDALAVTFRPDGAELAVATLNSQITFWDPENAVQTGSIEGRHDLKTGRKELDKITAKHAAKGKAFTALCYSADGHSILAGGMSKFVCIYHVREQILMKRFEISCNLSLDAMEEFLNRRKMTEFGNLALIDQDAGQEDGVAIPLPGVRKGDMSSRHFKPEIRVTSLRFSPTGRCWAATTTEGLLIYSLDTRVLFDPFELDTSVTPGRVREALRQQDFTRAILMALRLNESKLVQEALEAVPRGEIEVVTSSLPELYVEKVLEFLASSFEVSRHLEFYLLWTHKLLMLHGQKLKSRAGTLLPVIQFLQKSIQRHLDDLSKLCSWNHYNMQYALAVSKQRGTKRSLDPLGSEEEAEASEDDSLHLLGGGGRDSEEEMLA

How the values were obtained:
Assay in all cases: log2 fold change, soluble protein after heating vs DMSO (PISA); higher = thermal stabilisation; K562 cells, 10 uM, 30 min; active = over 0.2 and 3.5 SD of the protein, either way, in both replicates (recomputed)
erlotinib = compound: C#Cc1cccc(Nc2ncnc3cc(OCCOC)c(OCCOC)cc23)c1 [erlotinib]
Outline: (§1)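 Thermal stability values are relative to control samples and come from duplicates. They are expressed as log2 fold changes. For measurement, K562 cells (2×10^6 cells/mL) received 10 μM compound for 30 min, and aliquots were heated for 3 min over 48°C-58°C, pooled, and extracted at 4°C in PBS with 0.5% NP-40. Soluble protein, the supernatant after 21,000xg for 90 min, was quantified by TMTpro 16plex LC-MS/MS with equalised channel sums.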

[1] = compound: C/C(=N\NC(=O)C1=CC(=CC=C1)S(=O)(=O)N2CCOCC2)/C3=C(C=CC(=C3)Cl)O
Outline: as §1

[2] = compound: C1=CC(=C(C=C1Cl)C2=NC3=NC=CN=C3C(=N2)NC4=CC=NC=C4)F
Outline: as §1

[3] = compound: C1=CC(=CC=C1C2=NC3=C(N2)C=C(C=C3)C(=O)N)OC4=CC=C(C=C4)Cl
Outline: as §1

[4] = compound: C1=CC2=C(C=CC(=C2)/C=C\3/C(=O)NC(=NCC4=CC=CS4)S3)N=C1
Outline: as §1

[5] = compound: C1=CC2=NC=CN=C2C=C1/C=C/3\C(=O)NC(=O)S3
Outline: as §1

[6] = compound: C1=CC=C(C=C1)C2=NC(=C(N2)C3=CC=NC=C3)C4=CC(=C(C=C4)Cl)O
Outline: as §1

[7] = compound: C1=CC=C2C(=C1)C3=NNC4=CC=CC(=C43)C2=O
Outline: as §1

[8] = compound: C1CCN(C1)C(=O)NC2=CC=CC(=C2)NC3=NC=C(C(=N3)NCCC4=CN=CN4)Br
Outline: as §1

[9] = compound: C1CN(CCC1(CC2=CC=C(C=C2)Cl)N)C3=NC=NC4=C3C=CN4
Outline: as §1

IRAK-1-4 Inhibitor I = compound: C1COCCN1CCN2C3=CC=CC=C3N=C2NC(=O)C4=CC(=CC=C4)[N+](=O)[O-] [IRAK-1-4 Inhibitor I]
Outline: as §1

ibrutinib = compound: C=CC(=O)N1CCC[C@@H](n2nc(-c3ccc(Oc4ccccc4)cc3)c3c(N)ncnc32)C1 [ibrutinib]
Outline: as §1

[10] = compound: CC(=O)c1cnc2ccc(-c3cc(Cl)c(O)c(Cl)c3)nc2c1N[C@H]1CC[C@H](CN(C)C)CC1
Outline: as §1

ralimetinib = compound: CC(C)(C)Cn1c(N)nc2ccc(-c3[nH]c(C(C)(C)C)nc3-c3ccc(F)cc3)nc21 [ralimetinib]
Outline: as §1

[11] = compound: CC(C)(O)CC(=O)NCCn1ccc2ncnc(Nc3ccc(Oc4cccc(C(F)(F)F)c4)c(Cl)c3)c21
Outline: as §1

[12] = compound: CC(C)C1=C2N=C(C=C(N2N=C1)NCC3=CC=CC=C3)NCCCCCCN
Outline: as §1

[13] = compound: CC(C)C[C@@H](C=O)NC(=O)[C@H](CC(C)C)NC(=O)[C@H](CC(C)C)NC(=O)OCc1ccccc1
Outline: as §1

pinometostat = compound: CC(C)N(C[C@H]1O[C@@H](n2cnc3c(N)ncnc32)[C@H](O)[C@@H]1O)[C@H]1C[C@@H](CCc2nc3cc(C(C)(C)C)ccc3[nH]2)C1 [pinometostat]
Outline: as §1

[14] = compound: CC1=C(C2=C(C=C1)C(=O)C3=CC=CC=C3N2CCCN)C
Outline: as §1

[15] = compound: CC1=C(C(CC(=O)N1)C2=CC=C(C=C2)C(F)(F)F)C(=O)NC3=C(C=C4C(=C3)C=NN4)F
Outline: as §1

Measured: log2 fold change

PSPC1 (UniProt Q8WXF1)
inactive: erlotinib -0.024 | [1] 0.014 | [2] -0.036 | [3] 0.043 | [4] -0.008 | [5] 0.004 | [6] -0.101 | [7] -0.141 | [8] -0.033 | [9] -0.061 | IRAK-1-4 Inhibitor I -0.097 | ibrutinib 0.002 | [10] -0.201 | ralimetinib -0.012 | [11] -0.024 | [12] -0.18 | [13] 0.048 | pinometostat -0.02 | [14] 0.15

PRTFDC1 (UniProt Q9NRG1)
inactive: erlotinib 0.022 | [1] 0.028 | [2] 0.038 | [3] 0 | [4] -0.002 | [5] -0.006 | [6] -0.032 | [7] 0.037 | [8] -0.015 | [9] 0.036 | IRAK-1-4 Inhibitor I 0.042 | ibrutinib 0.013 | [10] 0.042 | ralimetinib -0.061 | [11] 0.021 | [12] 0.058 | [13] -0.045 | pinometostat -0.08 | [15] 0.042 | [14] -0.065

PSMD12 (UniProt O00232)
active: [13] -0.251
inactive: erlotinib -0.064 | [1] 0 | [2] -0.017 | [3] -0.003 | [4] -0.023 | [5] -0.016 | [6] 0.009 | [7] 0.066 | [8] -0.042 | [9] -0.049 | IRAK-1-4 Inhibitor I -0.055 | ibrutinib -0.022 | [10] 0.03 | ralimetinib 0.004 | [11] -0.01 | [12] 0 | pinometostat 0.03 | [14] 0.015

PSMC6 (UniProt P62333)
inactive: erlotinib -0.06 | [1] -0.074 | [2] -0.006 | [3] 0.011 | [4] -0.031 | [5] -0.037 | [6] 0.015 | [7] 0.014 | [8] 0.034 | [9] -0.008 | IRAK-1-4 Inhibitor I -0.026 | ibrutinib 0 | [10] 0.044 | ralimetinib 0.019 | [11] 0.093 | [12] 0.077 | [13] -0.206 | pinometostat 0.01 | [14] -0.01

PTGES3 (UniProt Q15185)
inactive: erlotinib 0.005 | [1] 0.095 | [2] 0.079 | [3] -0.05 | [4] 0.019 | [5] 0.007 | [6] 0.043 | [7] -0.014 | [8] -0.014 | [9] -0.049 | IRAK-1-4 Inhibitor I 0.04 | ibrutinib 0 | [10] -0.01 | ralimetinib 0.017 | [11] -0.103 | [12] -0.247 | [13] -0.079 | pinometostat -0.081 | [14] -0.202

PUF60 (UniProt Q9UHX1)
active: [10] -0.352 | [12] -0.235
inactive: erlotinib -0.011 | [1] 0.172 | [2] -0.005 | [3] 0.014 | [4] -0.071 | [5] -0.026 | [6] 0.013 | [7] 0.02 | [8] -0.072 | [9] -0.141 | IRAK-1-4 Inhibitor I -0.11 | ibrutinib -0.018 | ralimetinib 0.049 | [11] -0.016 | [13] -0.003 | pinometostat -0.016 | [14] 0.016

PTRHD1 (UniProt Q6GMV3)
active: [2] 0.37
inactive: erlotinib -0.002 | [1] 0.005 | [3] 0.046 | [4] 0.134 | [5] 0.045 | [6] 0.121 | [7] -0.032 | [8] -0.017 | [9] -0.012 | IRAK-1-4 Inhibitor I 0.155 | ibrutinib 0.004 | [10] -0.048 | ralimetinib -0.049 | [11] -0.022 | [12] 0.139 | [13] -0.01 | pinometostat 0.003 | [14] 0.184

PUM1 isoform 3 (UniProt Q14671)
inactive: erlotinib -0.023 | [1] 0 | [2] 0.04 | [3] 0.034 | [4] 0.047 | [5] 0.003 | [6] -0.013 | [7] 0.003 | [8] -0.057 | [9] 0.028 | IRAK-1-4 Inhibitor I 0.004 | ibrutinib 0.02 | [10] -0.097 | ralimetinib 0.013 | [11] -0.022 | [12] -0.059 | [13] 0.02 | pinometostat 0.023 | [14] 0.063

Two successive entries already listed, for reference:
PSMC6 (UniProt P62333)
inactive: erlotinib -0.06 | [1] -0.074 | [2] -0.006 | [3] 0.011 | [4] -0.031 | [5] -0.037 | [6] 0.015 | [7] 0.014 | [8] 0.034 | [9] -0.008 | IRAK-1-4 Inhibitor I -0.026 | ibrutinib 0 | [10] 0.044 | ralimetinib 0.019 | [11] 0.093 | [12] 0.077 | [13] -0.206 | pinometostat 0.01 | [14] -0.01

PTGES3 (UniProt Q15185)
inactive: erlotinib 0.005 | [1] 0.095 | [2] 0.079 | [3] -0.05 | [4] 0.019 | [5] 0.007 | [6] 0.043 | [7] -0.014 | [8] -0.014 | [9] -0.049 | IRAK-1-4 Inhibitor I 0.04 | ibrutinib 0 | [10] -0.01 | ralimetinib 0.017 | [11] -0.103 | [12] -0.247 | [13] -0.079 | pinometostat -0.081 | [14] -0.202

Next part:

PTTG1 (UniProt O95997)
active: [13] 0.393
inactive: erlotinib -0.024 | [1] 0.094 | [2] -0.024 | [3] 0.029 | [4] -0.043 | [5] -0.005 | [6] -0.205 | [7] -0.045 | [8] -0.024 | [9] -0.093 | IRAK-1-4 Inhibitor I -0.026 | ibrutinib -0.017 | [10] 0.057 | ralimetinib -0.069 | [11] -0.03 | [12] -0.002 | pinometostat 0.036 | [14] -0.084

QRSL1 (UniProt Q9H0R6)
active: [12] -0.231
inactive: erlotinib 0.024 | [1] 0.052 | [2] 0.118 | [3] -0.002 | [4] 0.06 | [5] -0.023 | [6] 0.071 | [7] -0.032 | [8] 0.017 | [9] -0.116 | IRAK-1-4 Inhibitor I 0.016 | ibrutinib 0.023 | [10] -0.025 | ralimetinib 0.001 | [11] -0.071 | [13] -0.003 | pinometostat -0.087 | [14] 0.025

PTPN2 (UniProt P17706)
inactive: erlotinib 0.042 | [1] 0.113 | [2] -0.014 | [3] -0.02 | [4] 0 | [5] -0.024 | [6] -0.024 | [7] 0.017 | [8] -0.084 | [9] -0.082 | IRAK-1-4 Inhibitor I -0.151 | ibrutinib -0.07 | [10] -0.127 | ralimetinib 0.013 | [11] 0.006 | [12] 0.034 | [13] 0.046 | pinometostat -0.044 | [14] 0.062

PSMD5 (UniProt Q16401)
inactive: erlotinib -0.015 | [1] 0.038 | [2] 0.063 | [3] -0.007 | [4] 0 | [5] 0.027 | [6] -0.001 | [7] -0.012 | [8] 0.014 | [9] -0.004 | IRAK-1-4 Inhibitor I 0.04 | ibrutinib -0.004 | [10] 0.047 | ralimetinib -0.013 | [11] -0.033 | [12] -0.106 | [13] -0.061 | pinometostat -0.003 | [14] -0.042

PTPN23 (UniProt Q9H3S7)
inactive: erlotinib 0.092 | [1] 0.158 | [2] -0.007 | [3] -0.048 | [4] 0.041 | [5] 0.018 | [6] 0 | [7] 0.006 | [8] -0.048 | [9] -0.029 | IRAK-1-4 Inhibitor I -0.008 | ibrutinib -0.052 | [10] -0.044 | ralimetinib 0.013 | [11] -0.061 | [12] -0.095 | [13] 0.038 | pinometostat -0.009 | [14] 0.046

QKI (UniProt Q96PU8)
inactive: erlotinib -0.011 | [1] 0.051 | [2] -0.008 | [3] 0.003 | [4] 0.028 | [5] 0.007 | [6] -0.002 | [7] -0.032 | [8] -0.025 | [9] -0.007 | IRAK-1-4 Inhibitor I -0.034 | ibrutinib -0.004 | [10] -0.113 | ralimetinib 0.007 | [11] 0.019 | [12] -0.221 | [13] -0.005 | pinometostat -0.026 | [14] -0.043

PTDSS1 (UniProt P48651)
inactive: erlotinib -0.076 | [1] -0.12 | [2] -0.099 | [3] 0.045 | [4] -0.031 | [5] -0.114 | [6] 0.03 | [7] 0.041 | [8] 0.016 | [9] -0.058 | IRAK-1-4 Inhibitor I -0.146 | ibrutinib 0.118 | [10] 0.021 | ralimetinib 0.029 | [11] -0.023 | [13] 0.061 | pinometostat 0.212 | [14] 0.035
active: [12] -0.585

PSMD3 (UniProt O43242)
inactive: erlotinib -0.074 | [1] -0.05 | [2] -0.072 | [3] 0.002 | [4] -0.022 | [5] -0.028 | [6] 0.008 | [7] 0.033 | [8] -0.012 | [9] -0.066 | IRAK-1-4 Inhibitor I -0.025 | ibrutinib -0.031 | [10] 0.044 | ralimetinib 0.023 | [11] -0.033 | [12] 0.01 | pinometostat 0.067 | [14] 0.039
active: [13] -0.22

PWP2 (UniProt Q15269)
inactive: erlotinib -0.065 | [1] -0.046 | [2] 0.066 | [3] 0.018 | [4] -0.046 | [5] 0.032 | [6] 0.018 | [7] -0.006 | [8] 0.027 | [9] -0.015 | IRAK-1-4 Inhibitor I 0.009 | ibrutinib -0.007 | [10] 0.031 | ralimetinib 0.057 | [11] 0.039 | [12] 0.123 | [13] 0.067 | pinometostat 0.181 | [15] -0.034 | [14] 0.19
